Data as given in PubChem BioAssay AID1259274 (Sanger Institute, 2017).

- Screen: 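Kinase knock-downs that cut colorectal cancer cell viability or boost drug killing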 (primary screen)
- Cells: human RKO colorectal cancer cells
- Knock-down reagent: siRNA pool against human genes
- Conditions: anchor drugs BYL719 at 1 µM, cetuximab at 5 µg/ml or trametinib at 10 nM; DMSO vehicle as the no-drug arm
- Read-out: 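Viability of cells versus control pool 2 (non-targeting) averaged across replicates; knock-down-only robust z-score; for every anchor drug (BYL719, cetuximab, trametinib) a synergy score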
- Scale: viability z-score, siRNA alone: higher = more viable cells; low values mean essential gene; viability, siRNA alone, vehicle: higher = more viable cells; synergy score with BYL719 and synergy score with Trametinib and synergy score with Cetuximab: higher = stronger combined killing with the drug
- Call rule: 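a single knock-down scoring under -3 on the robust z-score, meaning fewer cells, counts as essential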
- Calls: active = essential when knocked down alone; inactive = no change alone
The whole screen tested 794 reagents; below is a random part of them. 11 of all reagents (1.4%) count as active. 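Calls rest on knock-down without drug only; synergy scores with anchor drugs were not used for the essential call.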 A number with no mark means an inactive call. Viability is capped at 1. Not given: the amount of reagent, the time to read-out.

gene symbol | viability z-score, siRNA alone | viability, siRNA alone, vehicle (fraction of control) | synergy score with BYL719 | synergy score with Trametinib | synergy score with Cetuximab
MYLK | -0.834 | 0.827 | -0.0272 | -0.102 | -0.0587
PXK | 0.241 | 0.919 | -0.0887 | -0.163 | -0.0592
CDK13 | -0.553 | 0.851 | -0.173 | -0.155 | -0.146
IRAK3 | -1.4 | 0.778 | -0.0246 | -0.0314 | -0.0815
LYN | 0.347 | 0.928 | -0.0519 | -0.297 | -0.0723
BLK | 1.19 | 1 | -0.13 | -0.0304 | 0.0108
DGKH | 0.538 | 0.944 | -0.0125 | -0.0933 | -0.0403
MAPK8 | 1.19 | 1 | -0.0524 | -0.0894 | 0.149
FXN | -0.232 | 0.878 | -0.154 | -0.0829 | -0.0644
RIPK3 | -0.413 | 0.863 | 0.0811 | -0.00544 | 0.0224
WHR1 | -0.61 | 0.846 | -0.081 | -0.279 | -0.0811
AKT1 | 1.19 | 1 | -0.00344 | -0.224 | 0
INSR | 0.175 | 0.913 | -0.153 | -0.116 | 0.0513
FGR | 0.532 | 0.944 | -0.0829 | -0.209 | -0.00321
HIPK4 | -0.483 | 0.857 | -0.107 | -0.162 | -0.143
CLK4 | -0.233 | 0.878 | -0.0814 | -0.167 | 0.00717
CDKN1A | -0.261 | 0.876 | -0.0935 | -0.256 | -0.0409
MAGI3 | 0.383 | 0.931 | -0.0707 | -0.149 | -0.0692
RAD21 | -0.907 | 0.82 | 0.0502 | -0.0425 | -0.0237
IKBKG | -0.128 | 0.887 | -0.0916 | -0.0601 | -0.0638
DAPK2 | -0.484 | 0.857 | -0.146 | -0.25 | -0.0875
ULK1 | 0.0497 | 0.902 | -0.0601 | -0.11 | -0.0299
TRIM27 | -0.418 | 0.862 | -0.0492 | -0.381 | -0.137
MYO3A | -1.01 | 0.811 | -0.12 | -0.222 | -0.0368
CDK9 | 1.19 | 1 | -0.108 | -0.039 | 0.0127
TGFBR3 | 0.155 | 0.911 | -0.0625 | -0.295 | -0.0887
MAPKAPK3 | -0.767 | 0.832 | -0.0486 | -0.128 | -0.128
GRK6 | -0.376 | 0.866 | -0.122 | 0.0128 | 0.039
TBCK | 0.569 | 0.947 | -0.0166 | -0.169 | 0.00635
PHKG2 | 1.19 | 1 | -0.0431 | -0.128 | 0.0106
EPHB2 | 0.196 | 0.915 | -0.0855 | -0.181 | -0.027
TNK2 | 1.19 | 1 | -0.167 | -0.215 | 0.0479
RNASEL | 1.19 | 1 | -0.16 | -0.166 | 0
PIK3CA | -0.325 | 0.87 | -0.0341 | -0.101 | 0.0342
PIP4K2A | 0.452 | 0.937 | -0.118 | -0.171 | -0.00514
FGFR3 | 0.253 | 0.92 | -0.0378 | -0.16 | 0.00162
PDK4 | 0.668 | 0.955 | 0.0362 | -0.0919 | 0.0927
DNMT3A | 1.19 | 1 | 0.0318 | -0.0656 | 0.0658
CSF1R | -1.6 | 0.761 | -0.108 | -0.0385 | -0.0722
EPHB3 | 0.666 | 0.955 | 0.0691 | -0.0995 | 0.109
STK38 | 0.0514 | 0.902 | -0.0533 | -0.0387 | -0.068
ADGRL2 | -0.85 | 0.825 | -0.0544 | -0.11 | -0.112
TSSK6 | 0.481 | 0.939 | -0.0338 | -0.113 | -0.0201
MAPK14 | -1.14 | 0.801 | -0.273 | -0.135 | -0.199
LMTK3 | 0.039 | 0.901 | 0.0767 | -0.0324 | -0.0111
MAPK3 | -0.718 | 0.836 | -0.0844 | -0.141 | -0.0244
CDK5 | 0.0615 | 0.903 | -0.101 | -0.155 | 0.0198
STK32B | -0.974 | 0.815 | -0.0673 | -0.212 | -0.0643
SMC1A | -0.353 | 0.868 | -0.0398 | 0.000391 | 0.00968
CDK8 | -0.617 | 0.845 | -0.244 | -0.315 | -0.155

Ordered by “viability z-score, siRNA alone” (highest first): 3 of the entries above
gene symbol | viability z-score, siRNA alone | viability, siRNA alone, vehicle (fraction of control) | synergy score with BYL719 | synergy score with Trametinib | synergy score with Cetuximab
TGFBR3 | 0.155 | 0.911 | -0.0625 | -0.295 | -0.0887
GRK6 | -0.376 | 0.866 | -0.122 | 0.0128 | 0.039
MAPKAPK3 | -0.767 | 0.832 | -0.0486 | -0.128 | -0.128
